Test results: PubChem BioAssay AID504444 (National Center for Advancing Translational Sciences (NCATS), 2011)
The campaign covered roughly 360,000 compounds. About 7,500 (2.1%) were called active. The inconclusive results got no clear call from the source; some entries with a clear call stand among them for comparison. Calls come from the whole dose curve; as a rule, active = well fitted inhibition curve with a large enough effect; inconclusive = small, poorly fitted or top-dose-only effect, or effect the other way; inactive = flat fitted curve, though single readings scatter. Where the call is inconclusive, the potency comes from a doubtful curve fit.

assay: Nrf2 qHTS screen for inhibitors; settings: A549 ARE-Fluc reporter, luciferase luminescence, 18-24 h; activity change, negative = inhibition: at 46 µM (top of the series); note: nearly all actives have a fitted effect of over 60% in size
Summary of the method: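 Quantitative HTS in A549 cells stably bearing an antioxidant response element-firefly luciferase construct. Inhibition of Nrf2-driven transcription was scored by luminescence after 18-24 h of compound exposure at 37 °C.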
% is set by controls: 0 for no effect and ±100 for the full control effect; potency is the fitted concentration of half-maximal effect.

Structure (SMILES) | Potency | activity change, negative = inhibition
Cc1c(Cl)cccc1NC(=O)c1ncn(-c2ccccc2)n1 | inconclusive: 1.84 µM [activator, full curve] | 
Cc1ccc(NC2Sc3ccccc3NC2=O)cc1 (configuration not stated) |  | inactive: 0%
N#Cc1cccc(NC(=O)Cn2cnc(S(=O)(=O)N3CCc4ccccc43)c2)c1 | inconclusive: 25.9 µM [falling, single point] | 
O=Cc1cn(-c2ccccc2)nc1-c1cccnc1 | inconclusive: 23.1 µM [falling, single point] | 
O=C1c2ccccc2S(=O)(=O)c2cc(C(=O)N3CCN(c4ccc(Cl)cn4)CC3)ccc21 | inconclusive: 20.6 µM [falling, single point] | 
Cc1cc(C)nc(-n2ncc3c2CC(c2ccc(C(C)C)cc2)CC3=O)n1 (configuration not stated) | inconclusive: 23.1 µM [falling, single point] | 
Cc1ccc(CSc2nc3ccsc3c(=O)n2Cc2ccccn2)cc1 |  | inactive: 1.41%
Cn1c(NCc2ccc(Cl)cc2)nc2ccccc21 | inconclusive: 4.11 µM [activator, partial curve] | 
CO/N=C/c1ccc(N2CCN(C(=O)c3ccc(F)cc3)CC2)c([N+](=O)[O-])c1 | active: 10.3 µM | 
Cc1ccc(-c2csc(=Nc3ccc(F)cc3)n2Cc2ccc3c(c2)OCO3)cc1C | inconclusive: 20.6 µM [falling, single point] | 
O=C(NNC(=S)Nc1ccc(F)cc1F)c1ccco1 | inconclusive: 16.4 µM [activator, partial curve] | 
CCOc1ccccc1NS(=O)(=O)c1ccc(-c2cnc(C3CC3)o2)cc1 | inconclusive: 25.9 µM [falling, single point] | 
O=C(CSc1nc2ccc(Cl)cc2[nH]1)NCc1ccco1 | inconclusive: 29.1 µM [falling, single point] | 
CCCn1c(=N)n(CC(=O)c2ccc(Cl)cc2)c2ccccc21 | inconclusive: 14.6 µM [falling, partial curve] | 
C/C(=N\NC(=O)c1cc(C)nc2ccccc12)c1cccs1 | inconclusive: 2.91 µM [falling, partial curve, poor fit] | 
C[C@H](NC(=O)c1nc[nH]c1C(=O)N[C@@H](CCCCNC(=O)OC(C)(C)C)C(=O)OC(C)(C)C)C(=O)OCc1ccccc1 |  | inactive: 5.57%
Cc1[nH]n(-c2ccccc2)c(=O)c1N=Nc1cccc(Cl)c1 | inconclusive: 2.91 µM [activator, full curve] | 
Cc1nc2nncn2c(NCc2ccc(F)cc2)c1C | active: 8.2 µM | 
COC(=O)[C@H](C)[C@@H]1C[C@@]1(C)[C@@H](NC(=O)OCc1ccccc1)c1ccccc1 | inconclusive: 29.1 µM [falling, single point] | 
O=C(Nc1nnc(S(=O)(=O)Nc2ccccc2)s1)c1ccccc1Cl | inconclusive: 29.1 µM [falling, single point] | 
CCc1noc(-c2ccc(N3CCCCC3C)c([N+](=O)[O-])c2)n1 (configuration not stated) | inconclusive: 3.26 µM [activator, partial curve] | 

Structure (SMILES) | Potency | activity change, negative = inhibition
O=[N+]([O-])/C=C/c1cn(Cc2ccc(Cl)cc2)c2ccccc12 | inconclusive: 18.4 µM [falling, single point] | 
O=C1[C@H](Cc2ccccc2)NCC=CC[C@@H](c2ccc(Cl)cc2)N1Cc1ccc(Cl)cc1 | inconclusive: 20.6 µM [falling, single point] | 
Cc1ccc(S(=O)c2ccc(NC(=O)C3CC3)cc2C#N)cc1 (configuration not stated) | inconclusive: 23.1 µM [falling, partial curve] | 
COc1ccc(CCNC(=O)c2ccc(Cl)cc2)cc1OC | inconclusive: 20.6 µM [falling, single point] | 
Cc1cccc(C(=O)Nc2nnc(S(=O)(=O)N(C)Cc3ccco3)s2)c1 | inactive | 
Cc1ccc(NC(=O)CN2C(=O)C3(SCC(=O)N3c3cccc(Cl)c3)c3ccccc32)cc1C (configuration not stated) | inconclusive: 3.26 µM [activator, single point] | 
CCOC(=O)c1ccc2c(c1)nc(SCc1cn3ccsc3n1)n2CC | inconclusive: 14.6 µM [falling, partial curve, poor fit] | 
Cc1nn(-c2ccccc2)c2sc(C(=O)Nc3ccccc3Br)cc12 | inconclusive: 14.6 µM [falling, partial curve, poor fit] | 
CCc1c(C#N)c(SCCC(=O)Nc2ccc(C)cc2)nc2c1C(=O)CC(C)(C)C2 | inconclusive: 23.1 µM [falling, single point] | 
Cc1ccc(S(=O)(=O)N2CCN(C(=O)CN3C(=O)NC(C)(c4ccc(Cl)cc4)C3=O)CC2)c(C)c1 (configuration not stated) | inconclusive: 16.4 µM [falling, single point] | 
Nc1c(C(=O)Nc2ccc(C(=O)O)cc2)sc2nc3c(cc12)CCCC3 | inconclusive: 1.3 µM [activator, full curve] | 
CCc1ccc2c(CN(CC)Cc3nc4ccccc4c(=O)[nH]3)cc(=O)oc2c1 | inconclusive: 18.4 µM [activator, partial curve] | 
CC(Oc1ccc([N+](=O)[O-])cc1Cl)C(=O)Nc1ccc(C(N)=O)cc1 (configuration not stated) | inconclusive: 32.6 µM [falling, single point] | 
CCOc1cc(C2Nc3cccc4cccc(c34)N2)ccc1O |  | inactive: -16%
C1CCCCCC(NCCN2CCNCC2)CCCCC1 |  | inactive: 3.54%
N#Cc1c(Cl)cccc1Oc1ccc([S+](=O)([O-])N2CCN([S+](=O)([O-])c3c(F)cccc3F)CC2)cc1 |  | inactive: 3.61%
O=c1[nH]c2cc(F)ccc2c2ccc(F)cc12 | inconclusive: 0.651 µM [falling, full curve] | 
COc1ccc(N=c2scc(-c3ccc(OC)cc3)n2CCO)cc1 | active: 18.4 µM | 
CCCN1Cc2cccc(C(=O)Nc3ccc(CC)cc3)c2C1=O | inconclusive: 14.6 µM [falling, partial curve, poor fit] | 
COc1ccc2c(c1OC)C(=O)OC2C1c2c(cc3c(c2OC)OCO3)CCN1C (configuration not stated) | inconclusive: 29.1 µM [falling, single point] | 
COc1cc(-c2[nH]ncc2CN2CCN(c3cccc(C)n3)CC2)cc(OC)c1OC | inconclusive: 18.4 µM [falling, partial curve, poor fit] | 

A different layout for three compounds above:
Cc1cccc(C(=O)Nc2nnc(S(=O)(=O)N(C)Cc3ccco3)s2)c1
  Potency: inactive
Cc1ccc(S(=O)(=O)N2CCN(C(=O)CN3C(=O)NC(C)(c4ccc(Cl)cc4)C3=O)CC2)c(C)c1 (configuration not stated)
  Potency: inconclusive: 16.4 µM [falling, single point]
CCc1ccc2c(CN(CC)Cc3nc4ccccc4c(=O)[nH]3)cc(=O)oc2c1
  Potency: inconclusive: 18.4 µM [activator, partial curve]
